# Results from PMC5705821.
# By UniProt entry, the sequences of proteins in these tests, tags left out. Residues count along the entry.
# UniProt P19338: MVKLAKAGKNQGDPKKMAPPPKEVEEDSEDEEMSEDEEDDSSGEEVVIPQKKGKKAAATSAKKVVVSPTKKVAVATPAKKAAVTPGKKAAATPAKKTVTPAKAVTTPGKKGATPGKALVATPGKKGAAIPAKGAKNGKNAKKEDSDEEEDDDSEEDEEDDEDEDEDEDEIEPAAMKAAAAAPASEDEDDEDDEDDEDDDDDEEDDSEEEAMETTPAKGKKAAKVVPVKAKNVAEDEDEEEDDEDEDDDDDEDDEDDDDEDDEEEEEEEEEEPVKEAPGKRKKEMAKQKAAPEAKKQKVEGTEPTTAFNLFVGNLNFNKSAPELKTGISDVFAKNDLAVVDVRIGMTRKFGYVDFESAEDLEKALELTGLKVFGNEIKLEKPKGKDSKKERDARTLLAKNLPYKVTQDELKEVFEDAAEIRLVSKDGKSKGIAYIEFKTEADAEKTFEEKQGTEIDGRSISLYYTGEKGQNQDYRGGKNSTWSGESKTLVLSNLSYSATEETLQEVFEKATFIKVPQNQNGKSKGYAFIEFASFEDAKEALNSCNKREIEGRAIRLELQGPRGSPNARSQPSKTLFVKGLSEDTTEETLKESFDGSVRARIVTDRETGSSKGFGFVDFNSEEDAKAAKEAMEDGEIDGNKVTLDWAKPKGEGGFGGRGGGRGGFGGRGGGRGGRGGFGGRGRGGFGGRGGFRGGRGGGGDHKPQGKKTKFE
# UniProt P06748: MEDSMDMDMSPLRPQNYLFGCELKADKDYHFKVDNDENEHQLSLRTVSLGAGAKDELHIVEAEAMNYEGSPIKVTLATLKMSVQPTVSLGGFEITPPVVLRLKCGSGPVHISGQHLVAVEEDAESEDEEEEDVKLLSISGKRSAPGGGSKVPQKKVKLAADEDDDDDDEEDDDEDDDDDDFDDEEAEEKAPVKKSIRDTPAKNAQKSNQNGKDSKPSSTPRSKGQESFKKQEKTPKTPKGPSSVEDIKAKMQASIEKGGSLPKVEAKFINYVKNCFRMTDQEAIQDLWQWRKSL
# UniProt P02545, residues 1-646: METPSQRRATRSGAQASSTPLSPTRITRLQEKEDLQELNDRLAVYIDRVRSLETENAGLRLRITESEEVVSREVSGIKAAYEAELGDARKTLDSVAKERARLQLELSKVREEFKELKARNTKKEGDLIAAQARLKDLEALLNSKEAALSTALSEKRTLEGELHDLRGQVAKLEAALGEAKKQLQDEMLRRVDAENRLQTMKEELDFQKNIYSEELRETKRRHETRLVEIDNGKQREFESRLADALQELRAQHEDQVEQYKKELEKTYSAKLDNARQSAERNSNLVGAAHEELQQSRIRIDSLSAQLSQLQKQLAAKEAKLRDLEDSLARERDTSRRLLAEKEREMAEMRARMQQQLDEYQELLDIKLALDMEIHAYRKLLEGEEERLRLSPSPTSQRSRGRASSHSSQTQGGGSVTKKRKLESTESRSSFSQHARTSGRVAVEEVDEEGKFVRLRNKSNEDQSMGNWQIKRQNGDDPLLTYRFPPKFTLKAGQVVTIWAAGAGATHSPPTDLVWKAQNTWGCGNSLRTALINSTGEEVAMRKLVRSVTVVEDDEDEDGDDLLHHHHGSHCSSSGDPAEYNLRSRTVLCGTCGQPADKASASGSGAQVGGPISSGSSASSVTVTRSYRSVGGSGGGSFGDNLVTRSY
# UniProt P20700: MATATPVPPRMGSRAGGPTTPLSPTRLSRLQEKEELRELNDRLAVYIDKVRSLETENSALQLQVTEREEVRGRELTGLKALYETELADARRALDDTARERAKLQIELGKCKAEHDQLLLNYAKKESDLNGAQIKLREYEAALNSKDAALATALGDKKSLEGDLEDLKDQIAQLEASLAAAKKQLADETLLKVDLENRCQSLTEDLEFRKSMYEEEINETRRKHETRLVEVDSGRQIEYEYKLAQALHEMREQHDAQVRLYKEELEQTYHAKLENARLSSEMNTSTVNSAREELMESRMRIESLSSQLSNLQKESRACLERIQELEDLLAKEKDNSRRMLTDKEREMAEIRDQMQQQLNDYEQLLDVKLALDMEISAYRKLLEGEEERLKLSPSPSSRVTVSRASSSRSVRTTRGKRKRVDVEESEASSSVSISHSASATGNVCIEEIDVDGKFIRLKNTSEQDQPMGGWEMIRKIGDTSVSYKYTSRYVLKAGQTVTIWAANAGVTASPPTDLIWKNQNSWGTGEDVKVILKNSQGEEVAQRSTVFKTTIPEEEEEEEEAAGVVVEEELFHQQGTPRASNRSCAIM
# Results are given in words; binding and its absence hold for the method and conditions named. In cells and extracts the contact can be indirect. Some binding calls cover weakened binding; strength is not graded here.
# What was measured:
# [1] = target: nucleolin (human (endogenous in DLD-1)) (UniProt P19338); experiment: co-IP; whole-cell extracts of ~10^7 DLD-1 cells in co-IP lysis buffer (50 mM Tris pH 7.4, 150 mM NaCl, 0.5% NP-40, 1x PIC); 2 ug antinucleolin or antinucleophosmin antibody or normal rabbit IgG overnight at 4°C; protein A Dynabeads; 6 washes; immunoblot
# [2] = target: nucleophosmin (human (endogenous in DLD-1)) (UniProt P06748); experiment: as above
Molecule,binding [1],binding [2]
lamin A/C (from UniProt P02545 1-646),no binding,–
lamin B1 (from UniProt P20700 1-586),no binding,–
"lamin B2 (protein, UniProt Q03252 1-620) MSPPSPGRRREQRRPRAAATMATPLPGRAGGPATPLSPTRLSRLQEKEELRELNDRLAHYIDRVRALELENDRLLLKISEKEEVTTREVSGIKALYESELADARRVLDETARERARLQIEIGKLRAELDEVNKSAKKREGELTVAQGRVKDLESLFHRSEVELAAALSDKRGLESDVAELRAQLAKAEDGHAVAKKQLEKETLMRVDLENRCQSLQEELDFRKSVFEEEVRETRRRHERRLVEVDSSRQQEYDFKMAQALEELRSQHDEQVRLYKLELEQTYQAKLDSAKLSSDQNDKAASAAREELKEARMRLESLSYQLSGLQKQASAAEDRIRELEEAMAGERDKFRKMLDAKEQEMTEMRDVMQQQLAEYQELLDVKLALDMEINAYRKLLEGEEERLKLSPSPSSRVTVSRATSSSSGSLSATGRLGRSKRKRLEVEEPLGSGPSVLGTGTGGSGGFHLAQQASASGSVSIEEIDLEGKFVQLKNNSDKDQSLGNWRIKRQVLEGEEIAYKFTPKYILRAGQMVTVWAAGAGVAHSPPSTLVWKGQSSWGTGESFRTVLVNADGEEVAMRTVKKSSVMRENENGEEEEEEAEFGEEDLFHQQGDPRTTSRGCYVM",binds,binds
